Measurements reported in PubChem BioAssay AID504784 (Drosophila RNAi Screening Center, 2011)
Purpose: 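Genome-wide knock-down for genes giving too much or too little stored lipid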 (primary screen). Cells: Drosophila Kc167 embryonic cells. Knock-down reagent: long dsRNA against Drosophila genes, about 250 ng dsRNA per well. Timing: 4 days. Treatment: cells fed 400 µM oleic acid bound to BSA. Measured: 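Cells imaged and segmented; ratio of lipid droplet area to nuclear area, log-transformed, then normalised as a B-score over the screen; higher means more stored lipid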. Direction: droplet/nuclear area B-score: higher = more stored lipid (overstorage).
The screen tested about 17,000 reagents; below is an unselected part of those that have a named target and a result. 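Each column is one replicate's B-score; the combined score over replicates was not deposited, so single values may mislead.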 A plus sign joins genes that one reagent is predicted to hit. Further read-outs or replicates are left out here. No sequences are given here.

no.	target	amplicon	droplet/nuclear area B-score, replicate 1
1	CG13711	DRSC08320	1.57
2	Arglu1	DRSC02909	-0.335
3	Dd	DRSC20539	0.656
4	e(y)3	DRSC19450	0.0917
5	Vmat + CG13330	DRSC06365	-0.413
6	Non1	DRSC05954	0.00516
7	CG43316	DRSC06296	-1.34
8	CG43316	DRSC06297	-0.327
9	CG8064	DRSC16373	6.64
10	tow	DRSC10192	0.475
11	tow	DRSC23125	0.5
12	CG5863	DRSC15898	1.31
13	Ndc1	DRSC15895	-0.49
14	CG14626	DRSC18631	1.06
15	barc	DRSC11792	-2.3
16	CG7149	DRSC03016	-0.774
17	Hydr2	DRSC00607	-0.0133
18	CG7988	DRSC16358	-0.447
19	CG3397	DRSC15487	-1.1
20	CG5860	DRSC15896	-0.151
21	CG7335	DRSC10816	-0.262
22	CG5597	DRSC04517	0.495
23	NKAIN	DRSC04531	-0.0822
24	NKAIN	DRSC22470	-1.82
25	pan	DRSC17176	1.7
26	pan	DRSC22582	0.385
27	CG31269	DRSC15744	1.24
28	CG14370	DRSC14832	0.124
29	melt	DRSC11367	0.241
30	Gs1	DRSC00753	0.0908
31	CG10591	DRSC09748	-0.662
32	COX6B	DRSC19590	5.04
33	CG30098	DRSC05605	0.0713
34	Papss	DRSC11246	-1.05
35	Muc11A	DRSC19498	0.0235
36	CG9452	DRSC11075	1.04
37	CG9452	DRSC23344	0.283
38	noi	DRSC12383	0.0118
39	CG5245	DRSC15750	-0.29
40	Cadps	DRSC22200	0.338
41	Ttc7	DRSC04836	-0.424
42	eIF2D	DRSC13916	-1.63
43	dlt	DRSC08705	0.395
44	CG32984	DRSC21602	1.68
45	fend	DRSC17601	1.08
46	fend	DRSC17867	0.959
47	CG10062	DRSC05960	-1.44
48	CG10062	DRSC22535	-1.46
49	CG12963	DRSC06265	0.274
50	TpnC47D	DRSC07564	-1.4
51	Adss	DRSC14162	0.453
52	CG6345	DRSC16024	0.679
53	CG33253	DRSC19547	0.268
54	CG33253	DRSC20053	-0.553
55	CG34195	DRSC06909	0.0052
56	COX7C	DRSC06831	1.58
